A short description of this data set: Organic EL device with luminescent layer spin-coated from the ink. The settings on record: device of Example 47; H10: ink of Example 28 with Compound H10 instead of H4.

The structures appear in SMILES notation.

Regarding `c1ccc(-c2ccccc2-c2ccc3c(-c4ccccc4)c4ccccc4c(-c4ccccc4)c3c2)cc1` [Compound H10], the luminescence efficiency was determined as 4.1 cd/A.

These data come from US20080113101A1, “ORGANIC-ELECTROLUMINESCENCE-MATERIAL-CONTAINING SOLUTION, METHOD FOR FORMING THIN FILM OF ORGANIC ELECTROLUMINESCENCE MATERIAL, THIN FILM OF ORGANIC ELECTROLUMINESCENCE MATERIAL AND ORGANIC ELECTROLUMINESCENCE DEVICE” (Idemitsu Kosan Co., Ltd., priority 2006, published 2008).
